Measurements: PMC12413952
These are yes or no findings as the source states them, for the method shown. In cells and extracts the contact can be indirect. Some entries that bind do so weakly or less than the wild type.

The chains behind the UniProt entries cited, without tags or fusion partners.
UniProt P06211: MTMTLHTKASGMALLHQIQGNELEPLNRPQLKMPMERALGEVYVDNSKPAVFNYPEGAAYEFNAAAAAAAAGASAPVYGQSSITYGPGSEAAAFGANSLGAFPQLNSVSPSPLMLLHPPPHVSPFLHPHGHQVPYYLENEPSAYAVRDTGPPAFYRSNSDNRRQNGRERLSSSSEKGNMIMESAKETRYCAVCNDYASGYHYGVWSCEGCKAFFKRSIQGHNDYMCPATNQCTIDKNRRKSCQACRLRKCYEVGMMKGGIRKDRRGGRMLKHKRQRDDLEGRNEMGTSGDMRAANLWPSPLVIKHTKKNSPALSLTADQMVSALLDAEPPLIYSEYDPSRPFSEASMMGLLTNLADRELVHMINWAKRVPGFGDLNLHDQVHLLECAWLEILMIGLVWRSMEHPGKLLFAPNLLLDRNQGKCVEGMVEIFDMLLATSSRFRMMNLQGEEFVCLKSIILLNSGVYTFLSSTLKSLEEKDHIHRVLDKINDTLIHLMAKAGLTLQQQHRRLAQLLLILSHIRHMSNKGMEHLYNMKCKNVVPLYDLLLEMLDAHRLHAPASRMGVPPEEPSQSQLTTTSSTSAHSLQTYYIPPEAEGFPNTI

Target: Estrogen receptor 1 (ESR1) (rat (endogenous in rat liver tissue)) (UniProt P06211)
Assay: co-IP; proteins of rat liver tissue incubated with anti-ESR1 antibody or isotype control IgG; immunocomplexes blotted for TAK1

B1: TAK1 (protein, UniProt P0C8E4 1-606)
chain: MSTASAASSSSSSSASEMIEAPSQVLNFEEIDYKEIEVEEVVGRGAFGVVCKAKWRAKDVAIKQIESESERKAFIVELRQLSRVNHPNIVKLYGACLNPVCLVMEYAEGGSLYNVLHGAEPLPYYTAAHAMSWCLQCSQGVAYLHSMQPKALIHRDLKPPNLLLVAGGTVLKICDFGTACDIQTHMTNNKGSAAWMAPEVFEGSNYSEKCDVFSWGIILWEVITRRKPFDEIGGPAFRIMWAVHNGTRPPLIKNLPKPIESLMTRCWSKDPSQRPSMEEIVKIMTHLMRYFPGADEPLQYPCQYSDEGQSNSATSTGSFMDIASTNTSNKSDTNMEQVPATNDTIKRLESKLLKNQAKQQSDSGRLSLGASRGSSVESLPPTSEGKRMSADMSEIEARIVATTAYTKPKRGHRKTASFGNILDVPEIVISGNGQPRRRSIQDLTVTGTEPGQVSSRSSSPSVRMITTSGPTSEKPARSLPWTPDDSTDTNGSDNSIPMAYLTLDHQLQPLAPCPNSKESMAVFEQHCKMAQEYMKVQTEIALLLQRKQELVAELDQDEKDQQNTSRLVQEHKKLLDENKSLSTYYQQCKKQLEVIRSQQQKRQGTS
For B1, the binding was “binds”.
